Laboratory results taken from paper PMC3696110, “Hsp70 Oligomerization Is Mediated by an Interaction between the Interdomain Linker and the Substrate-Binding Domain” (PLoS ONE, 2013).
No constants are given. Whether binding was seen depends on the method and setting. Some entries that bind do so weakly or less than the wild type.

Sequences of proteins named here, by UniProt entry; tags and fusion partners are left off. A change or cut given only in a name is not applied to a line headed by its entry. Residues count along the entry.
UniProt P0DMV8, residues 394-641: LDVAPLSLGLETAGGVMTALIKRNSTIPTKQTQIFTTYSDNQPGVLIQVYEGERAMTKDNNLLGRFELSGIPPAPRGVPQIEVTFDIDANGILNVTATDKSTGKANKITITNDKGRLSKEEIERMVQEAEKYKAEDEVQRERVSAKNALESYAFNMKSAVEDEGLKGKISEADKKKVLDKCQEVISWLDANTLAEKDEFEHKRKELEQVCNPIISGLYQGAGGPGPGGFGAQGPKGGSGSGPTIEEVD

Molecular target: ΔLSBD641 (human Hsp70 residues 394-641) (human) (UniProt P0DMV8)
Assay: other fluorescence titration; fluorescence competition assay: 50 µM ΔLSBD641 and 2 µM dansylated NR peptide with 0, 50 or 200 µM non-dansylated NR peptide; Tris 50 mM, pH 7.4, 150 mM KCl, 5 mM MgCl2; 1 h at room temperature; dansyl emission after excitation at 330 nm; both purified

| binding | Binder |
| --- | --- |
| binds | NRLLLTG (dansyl on the N-terminus) [dansyl-NR peptide (NRLLLTG, N-terminally labelled with dansyl)] |
| binds | NRLLLTG [NR peptide (NRLLLTG), non-dansylated] |
